# Measurements reported in PubChem BioAssay AID504804 (Drosophila RNAi Screening Center, 2011).
# Purpose: 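Knock-downs shielding fly cells from apoptosis caused by DNA damage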 (primary screen)
# System: Drosophila Kc cells
# Reagent: long dsRNA against Drosophila genes, 0.5 µg dsRNA per well
# Duration: 96 h (48 h knock-down, then 48 h drug)
# Treatment: doxorubicin 5 µg/ml for 48 h, added 48 h after dsRNA
# Measured: 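Viability measured as cellular ATP by luminescence after 48 h knock-down then 48 h doxorubicin at 5 µg/ml; unnormalised plate counts for each replicate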
# Direction: raw ATP luminescence: higher = more viable cells, protection from doxorubicin
# Active means: 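Active when both duplicate wells lie at least 2 SD above the plate mean and protection is confirmed by rescreening and independent dsRNAs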
# The screen tested about 19,000 reagents; this is an unselected part of those with a known target gene and a result. Of all reagents, 47 (0.25%) are marked active. 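Signals are raw, not normalised; exact z-scores behind calls not deposited; actives needed confirmation, so some wells reaching 2 SD are inactive.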 A plus sign joins genes that one reagent is predicted to hit.
target gene,DRSC id,"raw ATP luminescence, replicate 1","raw ATP luminescence, replicate 2",Call
CG1598,DRSC06598,44313,75743,inactive
Tsp42Eh,DRSC06190,48517,70867,inactive
Phf5a,DRSC03261,21403,22387,inactive
CG5805,DRSC15878,43887,35133,inactive
TfIIFalpha,DRSC12608,28310,25677,inactive
Sprn,DRSC10132,99340,68953,inactive
Syx5,DRSC03432,66793,57640,inactive
l(2)05714,DRSC03118,1.00e5,62703,inactive
Polr1F,DRSC02278,1.00e5,53457,inactive
CG18266,DRSC02659,1.06e5,93967,inactive
CG13299,DRSC09973,70783,71163,inactive
CG11426,DRSC11658,55370,53320,inactive
CG11360,DRSC17124,2.30e5,2.25e5,inactive
CG11360,DRSC17134,56850,52410,inactive
Vps13B,DRSC15060,66170,64330,inactive
CG11902,DRSC14434,75040,64490,inactive
Sytbeta,DRSC10009,33000,37803,inactive
Sytbeta,DRSC10351,57613,56680,inactive
Cdc2rk,DRSC07590,43280,71330,inactive
Ephrin,DRSC17165,60780,66200,inactive
CG3349,DRSC10359,1.04e5,75060,inactive
TfAP-2,DRSC11601,58977,72770,inactive
fit,DRSC15280,59890,65920,inactive
CG10694,DRSC14263,60170,48590,inactive
Gr58b,DRSC04140,68053,60827,inactive
Serinc,DRSC11296,23400,19273,inactive
Tif-IA,DRSC03717,50860,59313,inactive
Tif-IA,DRSC03726,48507,45980,inactive
Cpr72Ea,DRSC10451,18017,25907,inactive
Pdcd4,DRSC19360,1.84e5,1.90e5,inactive
CG30105,DRSC05668,1.25e5,1.26e5,inactive
C1GalTA,DRSC03246,82330,67267,inactive
fig,DRSC16270,61110,48490,inactive
Surf4,DRSC16875,1.00e5,72690,inactive
iPLA2-VIA,DRSC10699,38423,35460,inactive

As entered above.
Entry for CG18266 [DRSC02659] in “raw ATP luminescence, replicate 2”: 93967
Result of CG13299 [DRSC09973] in “Call”: inactive
Result for Polr1F [DRSC02278] in “Call”: inactive
For “raw ATP luminescence, replicate 2”, Serinc [DRSC11296] is entered as 19273
Entry of CG11360 [DRSC17124] under “raw ATP luminescence, replicate 2”: 2.25e5
Under “raw ATP luminescence, replicate 2”, Sytbeta [DRSC10351] shows 56680

The listing continues.
target gene,DRSC id,"raw ATP luminescence, replicate 1","raw ATP luminescence, replicate 2",Call
ric8b + ric8a,DRSC18104,3.60e5,3.48e5,inactive
CG12902,DRSC06217,61997,71747,inactive
ap,DRSC04917,78570,61663,inactive
CG12546,DRSC11676,59360,48063,inactive
CG13386,DRSC02260,44833,72027,inactive
Dmtn,DRSC12513,35813,15697,inactive
Rcd1,DRSC07116,67420,59180,inactive
Axn,DRSC14120,1.49e5,1.19e5,inactive
SCCRO4,DRSC10671,65137,64697,inactive
CG11155,DRSC17184,1.78e5,1.64e5,inactive
CG15576,DRSC18064,34800,46020,inactive
Naprt,DRSC00630,1.15e5,84750,inactive
Dap160,DRSC03313,80243,65097,inactive
CG31678,DRSC02618,91657,1.09e5,inactive
CG31678,DRSC02619,56380,52683,inactive
galla-2,DRSC10936,81863,76913,inactive
CG18302,DRSC02663,34857,55177,inactive
Cul4,DRSC07243,60437,50667,inactive
ken,DRSC04696,36507,31777,inactive
mesh,DRSC14472,1.81e5,1.61e5,inactive
mesh,DRSC15098,53430,49430,inactive
mesh,DRSC15099,49450,48380,inactive
osi,DRSC02931,65620,72183,inactive
CG14598,DRSC12541,70063,59927,inactive
CG12971,DRSC11681,56323,51897,inactive
ytr,DRSC04306,91300,93663,inactive
CG9673,DRSC20202,2.99e5,2.77e5,inactive
Cyp303a1,DRSC03300,52207,52647,inactive
CG4382,DRSC02743,40993,72430,inactive
asRNA:CR42547 + CG15674,DRSC04264,68163,62397,inactive
CG1090,DRSC12150,19433,17753,inactive
CG5961,DRSC15927,37680,25507,inactive
TwdlH,DRSC14735,41370,43240,inactive
slam,DRSC03240,15933,17677,inactive
Upf2,DRSC18218,23980,32520,inactive
Chd1,DRSC00745,1.09e5,62897,inactive
CG15366 (retired record),DRSC18039,47400,47850,inactive
Vm26Ac,DRSC02329,21603,29440,inactive
Acp1,DRSC01854,32547,60820,inactive
TbCMF46,DRSC02221,42847,56573,inactive
CG17717,DRSC18130,28950,38910,inactive
CG7881,DRSC04898,54543,52510,inactive
Dph4,DRSC12318,71553,68563,inactive
eIF2Bdelta,DRSC04058,71697,53770,inactive
Pex14,DRSC11754,71177,62407,inactive
CG7276,DRSC10797,55820,32320,inactive
CG31068,DRSC13820,2.24e5,2.00e5,inactive
CG16772,DRSC02516,46823,50900,inactive
